In PubChem BioAssay AID316 (DTP/NCI, 2004):
The list shows only some results of the screen, not a fair sample: it gathers tests that were run many times, whatever their T/C, doses with no T/C, and many T/C values between a quarter and a half above the control. Further doses and runs are listed elsewhere. T/C is the treated group as % of the vehicle group. Some entries give survivors of the animals treated and no T/C: the source files T/C as zero there, which appears to mark a toxic dose or a test without result, not a measured value. Some survivor counts are full or nearly so, which does not show that the dose was tolerated: the source hardly ever lists a survival T/C far under the control, and the zero likely stands for such cases as well. Counts of survivors are from the toxicity check (mostly the fifth day) where no day follows; animals may have died later. Schedule codes are those of the source, taken here to give the interval after Q, in days (D) or hours (H), and the number of doses after X. Some schedules carry Z or #; the key to these is not given. For survival time, the PubChem record calls one and a half times the control and up active, and a quarter to a half above the control has no call in these data; cut-offs in other NCI protocols can differ. Counts like (3×) count equal records among those shown. Some T/C values are followed by the survivors on the day toxicity was checked, most often the fifth; without a count, all were alive then. Some entries hold several experiments; the results are listed from low to high.

Test system: P1534 leukemia ip, CD2F1 mice, survival T/C
Assay: NCI In Vivo Anticancer Drug Screen. Data for tumor model P1534 Leukemia (intraperitoneal) in CD2F1 (CDF1) mice
Conditions: T/C endpoint: mean survival time, higher T/C = longer survival
Description: The antitumor activity of compounds was measured in mice bearing transplantable tumors. Survival or tumor size were measured and the results are expressed as the measurement made in the treated group (T) divided by the measurement made in the vehicle treated control group (C). The tumor model used in this assay is P1534 Leukemia (intraperitoneal) in CD2F1 (CDF1) mice

[1] = dose: 12.5 mg/kg/injection, schedule: Q01DX010 (ip), vehicle: other
[2] = dose: 12.5 mg/kg/injection, schedule: Q01DX010 (ip), vehicle: saline
[3] = dose: 25.0 mg/kg/injection, schedule: Q01DX010 (ip), vehicle: saline
[4] = dose: 4.0 mg/kg/injection, schedule: Q01DX010 (ip), vehicle: saline
[5] = dose: 8.0 mg/kg/injection, schedule: Q01DX010 (ip), vehicle: saline
[6] = dose: 16.0 mg/kg/injection, schedule: Q01DX010 (ip), vehicle: saline
[7] = dose: 32.0 mg/kg/injection, schedule: Q01DX010 (ip), vehicle: saline
[8] = dose: 80.0 mg/kg/injection, schedule: Q01DX010 (ip), vehicle: saline
[9] = dose: 100.0 mg/kg/injection, schedule: Q01DX010 (ip), vehicle: saline
[10] = dose: 2.5 mg/kg/injection, schedule: Q01DX010 (ip), vehicle: saline
[11] = dose: 160.0 mg/kg/injection, schedule: Q01DX010 (ip), vehicle: saline
[12] = dose: 25.0 mg/kg/injection, schedule: Q01DX010 (ip), vehicle: alkali diluted with saline
[13] = dose: 200.0 mg/kg/injection, schedule: Q01DX010 (ip), vehicle: saline

For N=[N+]=CC(=O)OCC(N)C(=O)O (stereo unspecified), the T/C (dose: 1.57 mg/kg/injection, schedule: Q01DX010 (ip), vehicle: saline) was 121, 127, 128, 133 % of control, the T/C (dose: 3.13 mg/kg/injection, schedule: Q01DX010 (ip), vehicle: other) was 127 % of control and the T/C (dose: 3.13 mg/kg/injection, schedule: Q01DX010 (ip), vehicle: saline) was 117, 125, 127, 130, 132 % of control. The T/C (dose: 6.25 mg/kg/injection, schedule: Q01DX010 (ip), vehicle: saline) was 119, 125, 128, 137, 138 % of control, the survivor count [1] was 6 of 6 and the T/C [2] was 88, 94, 96, 99 % of control. The survivor count (dose: 25.0 mg/kg/injection, schedule: Q01DX010 (ip), vehicle: other) was 6 of 6, the T/C [3] was 100 % of control and the survivor count [3] was 6 of 6.
In the case of O=C(Nc1ccc(C2=NCCN2)cc1)c1ccc(C(=O)Nc2ccc(C3=NCCN3)cc2)c(Cl)c1, the T/C (dose: 2.0 mg/kg/injection, schedule: Q01DX010 (ip), vehicle: saline) is reported as 87, 95, 98 % of control (2×), the T/C [4] is reported as 88, 98, 100 % of control (2×) and the T/C [5] is reported as 92, 98 (2×), 120 % of control. The T/C [6] was 98, 100, 102, 104 % of control, the T/C [7] was 99, 100, 101 % of control and the survivor count [7] was 3 of 6.
CC(=O)NC1=C(N2CC2)C(=O)C(NC(C)=O)=C(N2CC2)C1=O was tested, and the T/C (dose: 125.0 micrograms/kg/injection, schedule: Q01DX010 (ip), vehicle: saline) was 125 % of control and the T/C (dose: 250.0 micrograms/kg/injection, schedule: Q01DX010 (ip), vehicle: saline) was 135 % of control.
With O=C(O)CCCc1ccc(N(CCCl)CCCl)cc1 the T/C [1] was 125 % of control and the survivor count (dose: 50.0 mg/kg/injection, schedule: Q01DX010 (ip), vehicle: other) was 0 of 6.
OCC1OC(n2cnc3c(=S)nc[nH]c32)C(O)C1O (stereo unspecified) was tested, and the T/C [8] was 133 % of control (2×).
O=C(Nc1ccc(C2=NCCN2)cc1)c1cccc(C(=O)Nc2ccc(C3=NCCN3)cc2)c1 was tested, and the T/C [6] was 127 % of control.
With COc1ccc2[nH]c3c(C)c4ccncc4c(C)c3c2c1 the T/C [8] was 135 % of control.
With COc1ccc2cc3[n+](cc2c1O)CCc1cc2c(cc1-3)OCO2 the T/C [9] was 142 % of control.
With COc1cc2c(c(OC)c1OC)-c1ccc(OC)c(=O)cc1[C@@H](NC(C)=O)CC2 the T/C (dose: 0.08 mg/kg/injection, schedule: Q01DX010 (ip), vehicle: saline, evaluated on day 46) was 140 % of control, the T/C (dose: 0.08 mg/kg/injection, schedule: Q01DX010 (ip), vehicle: saline, run until all animals had died) was 142 % of control and the T/C (dose: 0.09 mg/kg/injection, schedule: Q01DX015 (ip), vehicle: saline) was 133 % of control. For the same compound, the T/C (dose: 0.12 mg/kg/injection, schedule: Q01DX010 (ip), vehicle: saline) was 139 % of control, the T/C (dose: 0.13 mg/kg/injection, schedule: Q01DX015 (ip), vehicle: saline) was 138 % of control and the survivor count (dose: 2.0 mg/kg/injection, schedule: Q## X004 (ip), vehicle: saline) was 5 of 10. The survivor count (dose: 3.0 mg/kg/injection, schedule: Q## X004 (ip), vehicle: saline) was 3 of 10, the survivor count (dose: 3.6 mg/kg/injection, schedule: Q## X032 (ip), vehicle: saline) was 0 of 10 and the survivor count (dose: 3.7 mg/kg/injection, schedule: Q01DX001 (ip), vehicle: saline) was 5 of 9. For the same compound, the survivor count (dose: 4.5 mg/kg/injection, schedule: Q## X004 (ip), vehicle: saline) was 1 of 10, the survivor count (dose: 5.4 mg/kg/injection, schedule: Q## X032 (ip), vehicle: saline) was 0 of 10 and the survivor count (dose: 5.6 mg/kg/injection, schedule: Q01DX001 (ip), vehicle: saline) was 2 of 10.
For CS(=O)(=O)OCCC(=O)N1CCN(C(=O)CCOS(C)(=O)=O)CC1, the T/C [2] was 143 % of control.
With CN(C)c1ccc(Nc2c3ccccc3nc3ccccc23)cc1 the T/C (dose: 54.0 mg/kg/injection, schedule: Q01DX010 (ip), vehicle: saline) was 125 % of control and the survivor count (dose: 120.0 mg/kg/injection, schedule: Q01DX010 (ip), vehicle: saline) was 6 of 6.
CN[C@H]1CCc2cc(OC)c(OC)c(OC)c2-c2ccc(OC)c(=O)cc21 was tested, and the T/C (dose: 1.25 mg/kg/injection, schedule: Q01DX010 (ip), vehicle: saline) was 128 % of control, the T/C [10] was 128 % of control and the survivor count (dose: 5.0 mg/kg/injection, schedule: Q01DX010 (ip), vehicle: saline) was 6 of 6. For the same compound, the survivor count (dose: 10.0 mg/kg/injection, schedule: Q01DX010 (ip), vehicle: saline) was 6 of 6.
For Nc1nc(=S)c2ncn(C3OC(CO)C(O)C3O)c2[nH]1 (stereo unspecified), the survivor count [10] was 5 of 6.
For CN1CCN(CCCN2c3ccccc3Sc3ccc(C(F)(F)F)cc32)CC1, the survivor count [8] was 6 of 6 and the survivor count [11] was 0 of 6.
In the case of CC[C@]12CN3CCc4c([nH]c5ccccc45)[C@@](C(=O)OC)(c4cc5c(cc4OC)N(C)[C@H]4[C@@](O)(C(=O)OC)[C@H](OC(C)=O)[C@]6(CC)C=CCN7CC[C@]54[C@@H]76)CC(C3)[C@H]1O2 (stereo partly specified), the T/C (dose: 0.75 mg/kg/injection, schedule: Q01DX010 (ip), vehicle: saline) is reported as 146 % of control, the survivor count (dose: 6.0 mg/kg/injection, schedule: Q01DX010 (ip), vehicle: saline) is reported as 6 of 6 and the T/C (dose: 750.0 micrograms/kg/injection, schedule: Q01DX010 (ip), vehicle: saline) is reported as 143 % of control.
OCCN1CCC(CCCC2CCNCC2)CC1 was tested, and the survivor count [9] was 0 of 6.
With Nc1nc2n[nH]nc2c(=O)[nH]1 the T/C (dose: 12.5 mg/kg/injection, schedule: Q01DX010 (ip), vehicle: alkali diluted with saline) was 125 (2×), 131, 132 % of control, the T/C [12] was 124, 127 (2×), 131, 133, 135, 137 % of control and the survivor count [12] was 6 of 6. The T/C (dose: 50.0 mg/kg/injection, schedule: Q01DX010 (ip), vehicle: alkali diluted with saline) was 94, 124, 134, 135, 136 (2×), 140, 145 % of control, the T/C (dose: 100.0 mg/kg/injection, schedule: Q01DX010 (ip), vehicle: alkali diluted with saline) was 136, 141, 144 (2×), 145, 146, 148, 157 % of control and the T/C (dose: 200.0 mg/kg/injection, schedule: Q01DX010 (ip), vehicle: alkali diluted with saline) was 110, 124 [5 of 6 alive], 127 [5 of 6 alive], 130, 135, 136, 147, 162 % of control.
CCN(CC)CCNc1ccc(C)c2sc3ccccc3c(=O)c12 was tested, and the survivor count [11] was 0 of 6.
Clc1ncnc2nc[nH]c12 was tested, and the T/C (dose: 15.0 mg/kg/injection, schedule: Q01DX010 (ip), vehicle: saline) was 125 % of control, the T/C (dose: 30.0 mg/kg/injection, schedule: Q01DX010 (ip), vehicle: saline) was 125 % of control and the T/C (dose: 60.0 mg/kg/injection, schedule: Q01DX010 (ip), vehicle: saline) was 125 % of control.
In the case of O=C(NO)c1ccncc1, the survivor count (dose: 750.0 mg/kg/injection, schedule: Q01DX010 (ip), vehicle: water) is reported as 3 of 6 and the survivor count (dose: 800.0 mg/kg/injection, schedule: Q01DX010 (ip), vehicle: water) is reported as 3 of 6.
Cc1cc(O)c2cc3c(O)c(O)ccc3cc2c1 was tested, and the survivor count [4] was 5 of 6 and the survivor count [5] was 3 of 6.
With Cn1c(=O)c2c(ncn2C)n(C)c1=O the survivor count [13] was 3 of 6.
For CCC(CCC(C)C1CCC2C3CC=C4CC(O)CCC4(C)C3CCC12C)C(C)C (stereo unspecified) (tested in a mixture with another compound), the survivor count (dose: 12.5 mg/kg/injection, schedule: Q#A X020 (ip), vehicle: other) was 6 of 6, the survivor count (dose: 50.0 mg/kg/injection, schedule: Q#A X020 (ip), vehicle: other) was 5 of 6 and the survivor count (dose: 100.0 mg/kg/injection, schedule: Q01DX010 (ip), vehicle: water) was 5 of 6. The survivor count (dose: 100.0 mg/kg/injection, schedule: Q#A X020 (ip), vehicle: other) was 0 of 6.
With O=C(O)c1[nH]c(=O)[nH]c(=O)c1F the T/C [10] was 143 % of control.
For Cc1cc2nc3c(=O)[nH]c(=O)nc-3n(CC(O)C(O)C(O)C(O)CO)c2cc1C (stereo unspecified), the survivor count [13] was 6 of 6 and the survivor count (dose: 400.0 mg/kg/injection, schedule: Q01DX010 (ip), vehicle: saline) was 5 of 6.
